# Assay results from PubChem BioAssay AID1259354 (Paczesny and Yang Labs, IUPUI and University of Michigan, 2018).
# By UniProt entry, the sequences of proteins in these tests, tags left out. Where a name states a change or a piece, a line headed by the entry shows the natural chain unless it says otherwise.
# UniProt Q01638: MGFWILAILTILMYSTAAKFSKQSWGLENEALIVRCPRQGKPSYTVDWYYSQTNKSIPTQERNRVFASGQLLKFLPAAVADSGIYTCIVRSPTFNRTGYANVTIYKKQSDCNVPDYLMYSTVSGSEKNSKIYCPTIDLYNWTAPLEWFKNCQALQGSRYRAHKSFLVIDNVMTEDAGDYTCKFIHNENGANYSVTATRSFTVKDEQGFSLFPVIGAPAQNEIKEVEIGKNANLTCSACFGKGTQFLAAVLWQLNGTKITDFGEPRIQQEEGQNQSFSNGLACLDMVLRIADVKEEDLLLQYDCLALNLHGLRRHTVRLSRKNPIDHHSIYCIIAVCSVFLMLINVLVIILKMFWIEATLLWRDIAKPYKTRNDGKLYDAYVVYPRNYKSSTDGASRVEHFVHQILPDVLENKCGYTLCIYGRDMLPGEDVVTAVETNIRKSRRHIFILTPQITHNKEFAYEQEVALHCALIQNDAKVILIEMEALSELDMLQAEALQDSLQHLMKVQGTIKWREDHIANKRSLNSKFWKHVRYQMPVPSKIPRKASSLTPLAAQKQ
# In all, about 78,000 compounds went through this assay and about 1,800 (2.3%) were called active. The shares of active, inactive and inconclusive entries below differ from those in the screen. Cut-off read from the data, not from the text of the source: active = inhibition above about 30%; inconclusive = mostly about 10% to 28%; inactive = weaker than that.
# Target: Interleukin-1 receptor-like 1 (Homo sapiens) (UniProt Q01638)
# Experiment: blocks human ST2 binding to IL-33, primary screen, biochemical, AlphaLISA (AID 1259354)
# Conditions: AlphaLISA ST2-Fc/biotin-IL-33 interaction, 1 h; at 17 µM, hits give high values
row,Structure (SMILES),inhibition
1,Cn1nc(C2CCN(Cc3cnc(N)nc3)CC2)n(-c2ccccc2)c1=O,inactive
2,COc1cccc(CNC(=O)CC2C(=O)NCCN2CCc2ccccc2)c1OC (stereo unspecified),inconclusive: 11%
3,Cc1nn(CC(=O)N2CCCC3(CNC(=O)O3)C2)c(=O)c2ccccc12 (stereo unspecified),inconclusive: 11%
4,COc1cc(CN(C)CC2CCN(Cc3ccc(C)o3)CC2)ccc1F,inactive
5,CC1=C(C(=O)Nc2cccnc2)C(c2ccc(O)cc2)n2nnnc2N1 (stereo unspecified),inconclusive: 10%
6,O=C(COc1ccc([N+](=O)[O-])cc1)NCc1ccco1,inactive
7,CN(C)CCN(Cc1cccs1)c1ccccn1,inconclusive: 11%
8,COc1cccc2c(Nc3ccc(C)c(Cl)c3)cc(C)nc12,inconclusive: 28%
9,COC(=O)C1C(=O)C2=C(CC1C)NC(C)=C(C(=O)OC1CCCC1)C2c1c(F)cccc1Cl (stereo unspecified),inconclusive: 11%
10,CC1=C(C#N)C(=O)NC(=O)/C1=C\c1ccc(-c2cc(C)c(C)cc2[N+](=O)[O-])o1,active: 34%
11,COc1ccc(Nc2ccccc2C(=O)O)cc1,active: 35%
12,O=C(CCC1N=C2c3ccccc3N=C(SCc3cccc(F)c3)N2C1=O)NCc1ccco1 (stereo unspecified),inconclusive: 15%
13,CCN(CC)C(=O)Cn1cnc2sc(C(=O)N3CCc4ccccc4C3)c(C)c2c1=O,inconclusive: 11%
14,COc1ccccc1NC(=O)c1ccc2c(c1)-c1ccccc1C2=O,inconclusive: 29%
15,O=C(COc1ccccc1O)N1CC[C@@H](c2ccc3c(c2)OCO3)[C@H](O)C1,inconclusive: 17%
16,COc1ccc(C2OC(c3ccc(O)cc3)C(C)C2C)cc1OC (stereo unspecified),inactive
17,Cc1cnccc1CN(C)C(=O)c1ccc(C#CC(C)(C)O)o1,inconclusive: 10%
18,COc1cc2[nH]c(=O)n(CCCC(=O)NC3CCCCC3)c(=O)c2cc1OC,inactive
19,CCn1cc(C(=O)NCCC(C)C)c(=O)c2cc(S(=O)(=O)N(C)C3CCCCC3)ccc21,inconclusive: 13%
20,COc1cc(OC)c(NC(=O)c2ccc([N+](=O)[O-])cc2)cc1Cl,inconclusive: 14%
21,O=C(C1CC1)N1CCc2cc(S(=O)(=O)NC3CCCCCC3)ccc21,inconclusive: 10%
22,O=C(NCCCN1CCOCC1)C1CCC(=O)N1Cc1ccc(F)cc1 (stereo unspecified),inconclusive: 24%
23,O=C(c1coc(COc2cccc3cccnc23)n1)N1CCSCC1,inconclusive: 14%
24,CN(C)C1CCS(=O)(=O)C1 (stereo unspecified),inconclusive: 15%

row,Structure (SMILES),inhibition
1,CCc1c(C)nn(C)c1NC(=O)c1cccc(CN2CCCC(C(N)=O)C2)c1 (stereo unspecified),inactive
2,Clc1ccc(CCNc2ncnc3c2cnn3-c2ccccc2)cc1,inconclusive: 12%
3,C[C@@H]1C(=O)O[C@H]2[C@H]1CC[C@@]1(C)Cc3sc(NCCc4ccccn4)nc3[C@@H](C)[C@H]21,inconclusive: 28%
4,CCCCN(C)c1nnnc2c1sc1nc(N3CCOCC3)c3c(c12)CC(C)(C)OC3,inactive
5,O=c1c2oc3ccccc3c2ncn1Cc1ccccc1Cl,inconclusive: 15%
6,CCCCOc1ccccc1NC(=O)c1cncc(Br)c1,inactive
7,CN1C[C@@H](NC(=O)c2ccc(F)cc2)C[C@H]1c1nc(-c2ccc(Cl)cc2)no1,inconclusive: 14%
8,COc1cc(C(=O)Nc2sc3c(c2C(N)=O)CC(C)CC3)cc(OC)c1OC (stereo unspecified),inactive
9,CCCCN(C)C(=O)NC1(C(F)(F)F)Oc2ccc(Cl)cc2O1 (stereo unspecified),inactive
10,CCCN(CCO)Cc1ccc(F)c(F)c1,inconclusive: 10%
11,COc1ccc2nc(C)cc(Nc3cccc(C)c3C)c2c1,inactive
12,N#CCSc1nc2c(sc3ccccc32)c(=O)n1CCO,inconclusive: 14%
13,O=[N+]([O-])C1=Cc2cc(Br)cc(Br)c2OC1c1ccc2c(c1)OCO2 (stereo unspecified),active: 60%
14,COc1ccc(CN=Cc2[nH]c3ccc(Br)c(Cl)c3c2O)cc1,inconclusive: 24%
15,CCc1ccc(S(=O)(=O)NCc2nc3cccnc3n2Cc2cccc(C)c2)cc1,inactive
16,CCC(=O)c1ccc(Br)cc1N,inactive
17,CCc1ccc(OCC(=O)NCC(C)C)cc1,inactive
18,N#CC1=C(N)N2CCSC2=C(C#N)C1c1ccccc1 (stereo unspecified),inactive
19,C=CS(=O)(=O)c1ccc(NC(=O)c2sc3cc(Cl)ccc3c2Cl)c(OC)c1,inconclusive: 13%
20,CCN(CC)C(=O)c1nc(CCc2ccccc2)nn1-c1ccccc1,inconclusive: 18%
21,CCCCC1(C)OC(=O)C(=Cc2c[nH]c3ccccc23)C(=O)O1 (stereo unspecified),inconclusive: 21%
22,Cc1cc(Cl)ccc1OCC(O)CN1CCN(c2ccccc2F)CC1 (stereo unspecified),inactive
23,CC(=O)c1cccc(NS(=O)(=O)c2cc(Br)cc3c2N(C(C)=O)C(C)C3)c1 (stereo unspecified),inactive
24,Cc1nc2ccc(NC(=O)NC3CC3)cc2nc1C,inactive

# Ordered by number of heavy atoms (falling): part of the list above.
row,Structure (SMILES),inhibition
8,COc1cc(C(=O)Nc2sc3c(c2C(N)=O)CC(C)CC3)cc(OC)c1OC (stereo unspecified),inactive
22,Cc1cc(Cl)ccc1OCC(O)CN1CCN(c2ccccc2F)CC1 (stereo unspecified),inactive
10,CCCN(CCO)Cc1ccc(F)c(F)c1,inconclusive: 10%
16,CCC(=O)c1ccc(Br)cc1N,inactive

# (continued)

row,Structure (SMILES),inhibition
1,C=CCN1C(=Nc2cccnc2)SCC1(O)c1ccccc1 (stereo unspecified),active: 53%
2,COCCN[C@H]1[C@@H]2OC[C@@H](O2)[C@@H](NCc2ccc(-c3ccccc3)cc2)[C@@H]1O,active: 36%
3,O=C(NCC1CCCO1)c1cc(-c2ccc(Cl)s2)nc2ccccc12 (stereo unspecified),inconclusive: 14%
4,COc1ccc(CC2SC(=Nc3ccccc3)NC2=O)cc1 (stereo unspecified),active: 31%
5,CCOC(=O)Cc1ccc(NC(=O)Nc2c(C)nc3nc[nH]n3c2=O)cc1,inactive
6,CCOc1ccccc1N(C)C(=O)c1cc2cc3ccc(OC)cc3nc2s1,inconclusive: 27%
7,COc1ccc(NC(=O)/C=C/c2ccc(Cl)cc2)cc1,inconclusive: 20%
8,COCCN(Cc1ccccc1F)Cc1coc2ccc(C)cc2c1=O,inactive
9,CCOc1cc(/C=C2\C(=O)ON=C2C)ccc1OCc1ccc(Cl)cc1,inconclusive: 16%
10,CCOC(=O)N1CCN(C(=O)C(C)N(c2ccc(Oc3ccccc3)cc2)S(C)(=O)=O)CC1 (stereo unspecified),inconclusive: 15%
11,CN1C[C@@H](NC(=O)Nc2ccccc2)C[C@H]1c1nc(Cc2ccccc2)no1,inconclusive: 14%
12,Cc1nonc1C1CCCN1C(=O)c1cccc2ccnn12 (stereo unspecified),inactive
13,C/C=C1/[C@H](O[C@@H]2O[C@H](CO)[C@@H](O)[C@H](O)[C@H]2O)OC=C(C(=O)OC)[C@H]1CC(=O)OCCc1ccc(O)c(O)c1,inconclusive: 15%
14,Cc1cc(C)[n+]2nc([S-])sc2n1,inactive
15,COc1ccc2nc(NC(=O)c3ccc(NC(=O)C4CCCO4)cc3)sc2c1 (stereo unspecified),inconclusive: 10%
16,CC(Cn1cnc2ccccc21)C(=O)O (stereo unspecified),inactive
17,CCOc1ccc2nc(N3CCC(C(=O)N4CCN(C5CCCCC5)CC4)CC3)nc(C)c2c1,inconclusive: 18%
18,O=C(c1cccc(Br)c1)N1N=C(C(F)(F)F)CC1(O)c1ccc(Cl)cc1 (stereo unspecified),inconclusive: 13%
19,Cc1csc(CN(C)c2ccc(C(=O)NCCC3CCCCN3C)cn2)n1 (stereo unspecified),inconclusive: 12%
20,CNCCC(=O)c1ccccc1,inactive
21,COc1ccccc1OC(C)(C)C(=O)Nc1cnc2n1CCCC2,inconclusive: 17%
22,CO[C@H]1CN(c2nc(-c3ccccc3)nc3c2CCC3)CC[C@H]1N,inconclusive: 10%
23,OC[C@H]1O[C@H]([S-])[C@H](O)[C@@H](O)[C@@H]1O.[Au+],inconclusive: 13%
24,O=C(NCc1ccccc1)/C(=C/c1ccc2c(c1)OCO2)NC(=O)c1ccccc1Cl,inactive

row,Structure (SMILES),inhibition
1,CCCn1cc(S(=O)(=O)CC(=O)Nc2ccccc2)c2ccccc21,inactive
2,O=C1NC(=O)c2cc(N=Cc3ccc(Cl)cc3Cl)ccc21,active: 70%
3,CC(=O)N1CCC(C(=O)NC[C@@H]2C=C(C)[C@H](CC(=O)NCc3ccc(C#N)cc3)C[C@H]2C(C)C)CC1,inconclusive: 18%
4,O=C(CCc1ccncc1)NC1CC(=O)N(Cc2cccc3ccccc23)C1 (stereo unspecified),inactive
5,CSc1nc2ccc(NC(=O)CSc3nc4ccccc4[nH]3)cc2s1,inactive
6,COc1ccccc1C(=O)Nc1cccc(OCc2cc(=O)n3cc(Cl)ccc3n2)c1,inconclusive: 16%
7,CCC(C(=O)NC1CCC(n2cnnc2)CC1)n1cccn1 (stereo unspecified),inconclusive: 11%
8,CCc1ccc(CNc2ccc3c(c2)ncn3C(C)C)cc1,inconclusive: 14%
9,CCC(C)NC(=O)C1(C)CCC(=O)N1Cc1ccc(F)cc1Cl (stereo unspecified),inactive
10,C#CCOC1(c2ccc(Cl)cc2)OC(=O)c2ccccc21 (stereo unspecified),inactive
11,O=C(c1sccc1Cl)N1CCc2c(nc(-c3ccccc3)[nH]c2=O)C1,inconclusive: 17%
12,CC(NS(=O)(=O)c1ccc(F)cc1)C(c1cccs1)N1CCOCC1 (stereo unspecified),inconclusive: 12%
13,CC(C)=CCCC(C)(O)CCCC(C)(O)CCCC(C)(O)CCCC(C)(O)CCCC(C)(O)CCCC(C)(O)CCC/C(C)=C/CC/C(C)=C/CO (stereo unspecified),inconclusive: 10%
14,Cc1cc(S(=O)(=O)N2CCCC(CNS(=O)(=O)Cc3ccccc3)C2)c(C)s1 (stereo unspecified),inconclusive: 14%
15,COc1ccc(-n2ncc(C(C)NCc3c(C)nn(C(C)C)c3C)c2C)cc1 (stereo unspecified),inconclusive: 11%
16,Cc1cc(S(=O)(=O)N2CCc3c(nc[nH]c3=O)C2)c(C)s1,inconclusive: 20%
17,OCCCNCc1ccccc1,inactive
18,COc1ccc2nc3oc(C(=O)NC4CC4)cc3cc2c1,inconclusive: 11%
19,N#Cc1ccc(Oc2n[nH]c(=O)c3ccccc23)c([N+](=O)[O-])c1,inconclusive: 19%
20,CN1[C@@H](CCC(=O)NCc2ccco2)CNC(=O)[C@@H]2[C@H]1CCN2Cc1ccc(O)cc1,inconclusive: 10%
21,O=C(Nc1ccc([C@@H](O)[C@H]2COCC(=O)N2Cc2cccnc2)cc1)c1ccccc1,inconclusive: 16%
22,Cc1ccc(N2C(=O)CSC2c2ccccc2)cc1Cl (stereo unspecified),inactive
23,CN(C)c1ccc(/C=C(\C#N)c2nc3ccccc3[nH]2)cc1,inconclusive: 26%
24,CCN1CCC(N2C[C@H](NC(=O)c3cccc(-c4ccc(F)cc4)c3)C[C@H]2C(=O)OC)CC1,inconclusive: 11%
